# In the supplement of paper PMC8728848:
# This is one part of the list.
# B1: FGF1 (Homo sapiens), P05230 (protein)
# chain: MAEGEITTFTALTEKFNLPPGNYKKPKLLYSNGGHFLRILPDGTVDGTRDRSDQHIQLQLSAESVGEVYIKSTETGQYLAMTDGLLYGSQTPNEECLFLERLEENHYNTYISKHAEKNWFVGLKKNGSCKRGPRTHYGQAILFLPLPASSED
# Key:
# Assay in all cases: glycan array binding signal (z-score within array); higher = stronger binding
# Details in all cases: glycan notation: IUPAC condensed, linker removed
# [1] = target: Fuc(a1-2)[Gal(a1-3)]Gal(b1-4)GlcNAc(b1-2)Man(a1-3)[Fuc(a1-2)[Gal(a1-3)]Gal(b1-4)GlcNAc(b1-2)Man(a1-6)]Man(b1-4)GlcNAc(b1-4)GlcNAc
# In short: (§1)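 Glycan array data were curated from 3228 arrays in the Consortium for Functional Glycomics database and kept only where the protein sequence was available. Glycan names were converted to IUPAC-condensed notation, and columns mapping to the same glycan were averaged. The binding signal is a within-array Z-score, averaged across arrays of the same protein sequence at different concentrations or buffers and across linkers. Negative Z-scores can be read as non-binding.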
# [2] = target: Fuc(a1-2)[Gal(a1-3)]Gal(b1-4)GlcNAc(b1-2)Man(a1-3)[Fuc(a1-2)[Gal(a1-3)]Gal(b1-4)GlcNAc(b1-2)Man(a1-6)]Man(b1-4)GlcNAc(b1-4)[Fuc(a1-6)]GlcNAc
# In short: as §1
# [3] = target: Fuc(a1-2)[Gal(a1-3)]Gal(b1-4)GlcNAc(b1-3)GalNAc
# In short: as §1
# [4] = target: Fuc(a1-2)[Gal(a1-3)]Gal(b1-4)GlcNAc(b1-3)[Fuc(a1-2)[Gal(a1-3)]Gal(b1-4)GlcNAc(b1-6)]GalNAc
# In short: as §1
# [5] = target: Fuc(a1-2)[Gal(a1-3)]Gal(b1-4)GlcNAc(b1-6)GalNAc
# In short: as §1
# [6] = target: Fuc(a1-2)[Gal(a1-3)]Gal(b1-4)[Fuc(a1-3)]Glc
# In short: as §1
# [7] = target: Fuc(a1-2)[Gal(a1-3)]Gal(b1-4)[Fuc(a1-3)]GlcNAc
# In short: as §1
# [8] = target: Fuc(a1-2)[Gal(a1-3)]Gal(b1-4)[Fuc(a1-3)]GlcNAc(b1-3)GalNAc
# In short: as §1
# [9] = target: Fuc(a1-2)[Gal(a1-4)]Gal(b1-4)GlcNAc
# In short: as §1
# [10] = target: Fuc(a1-2)[GalNAc(a1-3)]Gal
# In short: as §1
# [11] = target: Fuc(a1-2)[GalNAc(a1-3)]Gal(b1-3)GalNAc(a1-3)[Fuc(a1-2)]Gal(b1-4)GlcNAc
# In short: as §1
# [12] = target: Fuc(a1-2)[GalNAc(a1-3)]Gal(b1-3)GalNAc(b1-3)Gal(a1-4)Gal(b1-4)Glc
# In short: as §1
# [13] = target: Fuc(a1-2)[GalNAc(a1-3)]Gal(b1-3)GlcNAc
# In short: as §1
# [14] = target: Fuc(a1-2)[GalNAc(a1-3)]Gal(b1-3)GlcNAc(b1-2)Man(a1-3)[Fuc(a1-2)[GalNAc(a1-3)]Gal(b1-3)GlcNAc(b1-2)Man(a1-6)]Man(b1-4)GlcNAc(b1-4)GlcNAc
# In short: as §1
# [15] = target: Fuc(a1-2)[GalNAc(a1-3)]Gal(b1-3)GlcNAc(b1-2)Man(a1-3)[Fuc(a1-2)[GalNAc(a1-3)]Gal(b1-3)GlcNAc(b1-2)Man(a1-6)]Man(b1-4)GlcNAc(b1-4)[Fuc(a1-6)]GlcNAc
# In short: as §1
# [16] = target: Fuc(a1-2)[GalNAc(a1-3)]Gal(b1-3)GlcNAc(b1-3)GalNAc
# In short: as §1
# [17] = target: Fuc(a1-2)[GalNAc(a1-3)]Gal(b1-3)GlcNAc(b1-6)GalNAc
# In short: as §1
# [18] = target: Fuc(a1-2)[GalNAc(a1-3)]Gal(b1-4)Glc
# In short: as §1
# [19] = target: Fuc(a1-2)[GalNAc(a1-3)]Gal(b1-4)GlcNAc
# In short: as §1
# [20] = target: Fuc(a1-2)[GalNAc(a1-3)]Gal(b1-4)GlcNAc(b1-2)Man
# In short: as §1
# [21] = target: Fuc(a1-2)[GalNAc(a1-3)]Gal(b1-4)GlcNAc(b1-2)Man(a1-3)[Fuc(a1-2)[GalNAc(a1-3)]Gal(b1-4)GlcNAc(b1-2)Man(a1-6)]Man(b1-4)GlcNAc(b1-4)GlcNAc
# In short: as §1
# [22] = target: Fuc(a1-2)[GalNAc(a1-3)]Gal(b1-4)GlcNAc(b1-2)Man(a1-3)[Fuc(a1-2)[GalNAc(a1-3)]Gal(b1-4)GlcNAc(b1-2)Man(a1-6)]Man(b1-4)GlcNAc(b1-4)[Fuc(a1-6)]GlcNAc
# In short: as §1
# [23] = target: Fuc(a1-2)[GalNAc(a1-3)]Gal(b1-4)GlcNAc(b1-3)Gal(b1-4)GlcNAc
# In short: as §1
# [24] = target: Fuc(a1-2)[GalNAc(a1-3)]Gal(b1-4)GlcNAc(b1-3)Gal(b1-4)GlcNAc(b1-3)Gal(b1-4)GlcNAc
# In short: as §1
# [25] = target: Fuc(a1-2)[GalNAc(a1-3)]Gal(b1-4)GlcNAc(b1-3)GalNAc
# In short: as §1
# [26] = target: Fuc(a1-2)[GalNAc(a1-3)]Gal(b1-4)GlcNAc(b1-3)[Fuc(a1-2)[GalNAc(a1-3)]Gal(b1-4)GlcNAc(b1-6)]GalNAc
# In short: as §1
# [27] = target: Fuc(a1-2)[GalNAc(a1-3)]Gal(b1-4)GlcNAc(b1-6)GalNAc
# In short: as §1
# [28] = target: Fuc(a1-2)[GalNAc(a1-3)]Gal(b1-4)[Fuc(a1-3)]GlcNAc
# In short: as §1
# [29] = target: Fuc(a1-2)[GalNAc(a1-3)]Gal(b1-4)[Fuc(a1-3)]GlcNAc(b1-3)GalNAc
# In short: as §1
# [30] = target: Fuc(a1-2)[GalNAc(a1-4)]Gal(b1-4)GlcNAc
# In short: as §1
# [31] = target: Fuc(a1-2)[GalNAc(b1-3)]Gal
# In short: as §1
# Fuc(a1-3)GlcNAc = target: Fuc(a1-3)GlcNAc
# In short: as §1
# [32] = target: Fuc(a1-3)[Gal(b1-4)]Glc6S
# In short: as §1
# [33] = target: Fuc(a1-3)[Gal(b1-4)]GlcNAc
# In short: as §1
# [34] = target: Fuc(a1-3)[Gal(b1-4)]GlcNAc(b1-2)Man
# In short: as §1
# [35] = target: Fuc(a1-3)[Gal(b1-4)]GlcNAc(b1-2)Man(a1-3)[Fuc(a1-3)[Gal(b1-4)]GlcNAc(b1-2)Man(a1-6)]Man(b1-4)GlcNAc(b1-4)GlcNAc
# In short: as §1
# [36] = target: Fuc(a1-3)[Gal(b1-4)]GlcNAc(b1-2)Man(a1-3)[Fuc(a1-3)[Gal(b1-4)]GlcNAc(b1-2)Man(a1-6)]Man(b1-4)GlcNAc(b1-4)[Fuc(a1-6)]GlcNAc
# In short: as §1
# [37] = target: Fuc(a1-3)[Gal(b1-4)]GlcNAc(b1-3)Gal(b1-3)[Fuc(a1-4)]GlcNAc
# In short: as §1
# [38] = target: Fuc(a1-3)[Gal(b1-4)]GlcNAc(b1-3)Gal(b1-4)[Fuc(a1-3)]GlcNAc
# In short: as §1
# [39] = target: Fuc(a1-3)[Gal(b1-4)]GlcNAc(b1-3)Gal(b1-4)[Fuc(a1-3)]GlcNAc(b1-3)Gal(b1-4)[Fuc(a1-3)]GlcNAc
# In short: as §1
# [40] = target: Fuc(a1-3)[Gal(b1-4)]GlcNAc(b1-3)GalNAc
# In short: as §1
# [41] = target: Fuc(a1-3)[Gal(b1-4)]GlcNAc(b1-6)GalNAc
# In short: as §1
# [42] = target: Fuc(a1-3)[Gal(b1-4)]GlcNAc(b1-6)[Gal(b1-3)GlcNAc(b1-3)]Gal(b1-4)Glc
# In short: as §1
# [43] = target: Fuc(a1-3)[Gal(b1-4)]GlcNAc6S
# In short: as §1
# [44] = target: Fuc(a1-3)[Gal3S(b1-4)]Glc
# In short: as §1
binder,measurement,setting,value
B1,glycan array binding signal (z-score),[1],-0.325
same,glycan array binding signal (z-score),[2],-0.443
same,glycan array binding signal (z-score),[3],-0.631
same,glycan array binding signal (z-score),[4],1.24
same,glycan array binding signal (z-score),[5],-0.234
same,glycan array binding signal (z-score),[6],-0.923
same,glycan array binding signal (z-score),[7],0.863
same,glycan array binding signal (z-score),[8],0.787
same,glycan array binding signal (z-score),[9],2.55
same,glycan array binding signal (z-score),[10],-0.401
same,glycan array binding signal (z-score),[11],-0.821
same,glycan array binding signal (z-score),[12],-0.725
same,glycan array binding signal (z-score),[13],0.393
same,glycan array binding signal (z-score),[14],-0.758
same,glycan array binding signal (z-score),[15],-0.836
same,glycan array binding signal (z-score),[16],0.257
same,glycan array binding signal (z-score),[17],-0.775
same,glycan array binding signal (z-score),[18],-0.911
same,glycan array binding signal (z-score),[19],-0.9
same,glycan array binding signal (z-score),[20],-0.682
same,glycan array binding signal (z-score),[21],-0.344
same,glycan array binding signal (z-score),[22],0.729
same,glycan array binding signal (z-score),[23],-0.878
same,glycan array binding signal (z-score),[24],-0.315
same,glycan array binding signal (z-score),[25],-0.242
same,glycan array binding signal (z-score),[26],-0.739
same,glycan array binding signal (z-score),[27],-0.587
same,glycan array binding signal (z-score),[28],1.86
same,glycan array binding signal (z-score),[29],1.36
same,glycan array binding signal (z-score),[30],-0.244
same,glycan array binding signal (z-score),[31],-0.441
same,glycan array binding signal (z-score),Fuc(a1-3)GlcNAc,-0.004
same,glycan array binding signal (z-score),[32],2.09
same,glycan array binding signal (z-score),[33],0.225
same,glycan array binding signal (z-score),[34],-0.249
same,glycan array binding signal (z-score),[35],-0.566
same,glycan array binding signal (z-score),[36],0.327
same,glycan array binding signal (z-score),[37],-0.726
same,glycan array binding signal (z-score),[38],1.32
same,glycan array binding signal (z-score),[39],-0.805
same,glycan array binding signal (z-score),[40],0.371
same,glycan array binding signal (z-score),[41],1.04
same,glycan array binding signal (z-score),[42],-0.795
same,glycan array binding signal (z-score),[43],1.27
same,glycan array binding signal (z-score),[44],-0.712

# Given tab-delimited: part of the list above.
binder	measurement	setting	value
B1	glycan array binding signal (z-score)	[11]	-0.821
same	glycan array binding signal (z-score)	[13]	0.393
same	glycan array binding signal (z-score)	[43]	1.27
